Laboratory results reported in patent publication US10801879B2, “Magnesium zinc oxide nanostructure modified biosensor and monitoring of response of cell population to an agent using the same” (Rutgers, The State University of New Jersey, priority 2015, dated 2020).
Like-named read-outs stand apart in the source and are kept apart here.

What was measured:
S. epidermidis = test system: S. epidermidis
Experimental: (§1) The sensor was placed inside an incubator at 37° C. while automatically measuring the acoustic spectrum every 15 minutes for 3 hours.

P. aeruginosa = test system: P. aeruginosa
Experimental: as §1

Structure (SMILES): O=C(O)c1cn(C2CC2)c2cc(N3CCNCC3)c(F)cc2c1=O [ciprofloxacin]
- Δf plot versus no-drug (S. epidermidis; 0.5 MIC, 3 hours, 37° C.): not enough to kill the bacteria
- time at which Δf plot started to taper off and flatten (S. epidermidis; 1 MIC): 1 h
- Δf plot versus no-drug (S. epidermidis; 5 MIC): grew slightly but never reached the same level as the no-drug Δf values
- Δf plot versus no-drug (S. epidermidis; 10 MIC): grew slightly but never reached the same level as the no-drug Δf values
- Δf plot versus no-drug (P. aeruginosa; 0.5 MIC, 3 hours, 37° C.): not enough to kill the bacteria
- time at which Δf plot started to taper off and flatten (P. aeruginosa; 1 MIC): 1.5 h
- Δf plot versus no-drug (P. aeruginosa; 5 MIC): grew slightly but never reached the same level as the no-drug Δf values
- Δf plot versus no-drug (P. aeruginosa; 10 MIC): grew slightly but never reached the same level as the no-drug Δf values
